From article PMC8450433

Target: T1, glypican 4 (mouse (endogenous in APP/PS1 mouse brain)) (UniProt P51655)
T1 sequence: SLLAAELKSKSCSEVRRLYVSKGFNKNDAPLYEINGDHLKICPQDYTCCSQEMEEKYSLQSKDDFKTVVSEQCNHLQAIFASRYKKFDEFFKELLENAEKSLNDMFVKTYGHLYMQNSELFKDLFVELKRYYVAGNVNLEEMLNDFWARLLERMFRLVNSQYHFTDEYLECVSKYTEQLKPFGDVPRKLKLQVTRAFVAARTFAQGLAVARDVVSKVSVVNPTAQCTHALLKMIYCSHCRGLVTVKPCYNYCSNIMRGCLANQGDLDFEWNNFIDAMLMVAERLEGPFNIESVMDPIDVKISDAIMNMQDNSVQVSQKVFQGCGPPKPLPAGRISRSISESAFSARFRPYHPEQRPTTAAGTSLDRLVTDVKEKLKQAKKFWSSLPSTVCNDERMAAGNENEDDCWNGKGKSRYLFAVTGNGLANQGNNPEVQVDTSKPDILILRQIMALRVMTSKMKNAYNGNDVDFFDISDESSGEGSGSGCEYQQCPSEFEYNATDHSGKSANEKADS
Experiment: co-IP; APP/PS1 mouse brain lysate (6-month-old mice, 4 mg protein, pre-cleared with protein G); IP with anti-Gpc4 antibody (1:100) and protein G beads overnight at 4°C; western blot for MOAB2 (Aβ42) and LRP1

- binding: binds
Substance: low-density lipoprotein receptor-related protein 1

No constants are given. Whether binding was seen depends on the method and setting. In cells and extracts the contact can be indirect. Binding can be weak; no strength is given.
